This test deals with eEF1A1 (UniProt P10126). Put plainly: TAP purification of tagged latexin from FDCP-1 lysates, Western blot with anti-eEF1A1 antibody (association in a lysate; may be indirect). (In western blotting, separated proteins are transferred to a membrane and probed.)

By UniProt entry, the sequences of proteins in these tests, tags left out. Residues count along the entry.
UniProt P10126, residues 2-462: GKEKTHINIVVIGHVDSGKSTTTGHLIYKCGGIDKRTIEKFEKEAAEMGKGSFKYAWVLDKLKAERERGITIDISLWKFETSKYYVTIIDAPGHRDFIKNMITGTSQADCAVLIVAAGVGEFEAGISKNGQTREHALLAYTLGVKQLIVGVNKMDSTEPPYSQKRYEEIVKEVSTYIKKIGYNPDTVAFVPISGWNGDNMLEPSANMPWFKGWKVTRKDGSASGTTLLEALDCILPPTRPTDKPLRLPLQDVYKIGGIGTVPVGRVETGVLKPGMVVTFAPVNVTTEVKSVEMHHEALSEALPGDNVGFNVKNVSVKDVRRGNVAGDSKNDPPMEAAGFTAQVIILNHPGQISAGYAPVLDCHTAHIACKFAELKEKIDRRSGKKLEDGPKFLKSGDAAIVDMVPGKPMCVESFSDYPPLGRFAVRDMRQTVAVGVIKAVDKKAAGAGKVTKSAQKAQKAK

Results are given in words; binding and its absence hold for the method and conditions named. Some entries that bind do so weakly or less than the wild type. Tags and fused reporters may be left off the sequences shown.

B1: TAP-tagged latexin (TAP-m(ouse)latexin) (protein, mouse, UniProt P70202 1-222, looked up, not shown: large carriers)
chain: MEIPPTHYAASRAASVAENCINYQQGTPHKLFLVQTVQQASKEDIPGRGHKYHLKFSVEEIIQKQVTVNCTAEVLYPQMGQGSAPEVNFTFEGEIGKNPDEEDNTFYQSLMSLKRPLEAQDIPDNFGNVSPQMKPVQHLAWVACGYVMWQNSTEDTWYKMLKIQTVKQVQRNDDFIELDYTILLHDIASQEIIPWQMQVLWHPQYGTKVKHNSRLPKEGQAE
In the case of B1, the binding result is listed as “binds”.

Source of the values: patent US20100183585A1, “METHODS AND COMPOSITIONS FOR TREATING TUMORS AND METASTASES THROUGH THE MODULATION OF LATEXIN” (University of Kentucky Research Foundation, priority 2008, published 2010).
